Laboratory results taken from PMC7564829 (Microorganisms, 2020).
Some peptides are written in HELM: one residue between dots, names in brackets for other building blocks, links after the first $.

Assay: peptide made by a vendor
Details: whole synthesis, reversed-phase HPLC

Which “final HPLC purity” value does the source give for PEPTIDE1{R.W.R.W.R.W.[am]}$$$$V2.0 here?
The value was 99.15%.

For PEPTIDE1{W.K.W.K.W.K.[am]}$$$$V2.0, which “final HPLC purity” value is on record?
The value was 98.83%.

With PEPTIDE1{W.R.W.R.W.R.[am]}$$$$V2.0 as the substance, how does the “final HPLC purity” value read?
The value was 95.31%.

With “PEPTIDE1{W.K.V.W.K.V.W.K.V.[am]}$$$$V2.0” as the substance, how does the “final HPLC purity” value read?
The value was 99.22%.

For PEPTIDE1{K.W.K.W.K.W.[am]}$$$$V2.0, which “final HPLC purity” value is on record?
Its value is 95.98%.

With “PEPTIDE1{W.R.L.W.R.L.W.R.L.[am]}$$$$V2.0” as the substance, how does the “final HPLC purity” value read?
Its value is 95.59%.

For “PEPTIDE1{W.R.L.R.W.R.L.R.W.R.L.R.[am]}$$$$V2.0”, which “final HPLC purity” value is on record?
The value was 99.40%.

With “PEPTIDE1{[ac].W.R.L.R.W.K.T.R.W.R.L.K.[am]}$$$$V2.0” as the substance, how does the “final HPLC purity” value read?
The value was 98.79%.

For “PEPTIDE1{[ac].W.K.V.K.W.K.V.K.W.K.V.K.[am]}$$$$V2.0”, which “final HPLC purity” value is on record?
The value was 95.27%.
